Measured values as given in patent US6455242B1, “Color photographic element containing speed improving compound” (Eastman Kodak Company, priority 1998, dated 2002).

Assay: Multilayer film ML-B, stepped exposure, KODAK FLEXICOLOR (C-41) process
[1] = Layer 9 at 0.082 mmol/m^2 (6.8 mmol/mol silver), dispersed in three times own weight of N,N-dibutyllauramide, check ML-B-1
[2] = Layer 9 at 0.082 mmol/m^2, dispersed in three times own weight of N,N-dibutyllauramide
[3] = Layer 9 at 0.082 mmol/m^2, dispersed in three times own weight of N,N-dibutyllauramide, check ML-B-1
[4] = Layer 9, dispersed in twice own weight of (Z)-9-octadecen-1-ol, check ML-B-1
[5] = Layer 9, dispersed in twice own weight of ortho-methylphenyl benzoate, check ML-B-1
[6] = Layer 9 at 0.082 mmol/m^2, dispersed in twice own weight of N,N-dibutyllauramide
[7] = Layer 9 at 0.082 mmol/m^2, dispersed in twice own weight of N,N-dibutyllauramide, check ML-B-1
[8] = added to Layer 10 (Yellow filter layer) at 0.029 g/m^2, check ML-B-1
[9] = Layer 9 at 0.082 mmol/m^2, added as water solutions
[10] = Layer 9 at 0.082 mmol/m^2, added as water solutions, check ML-B-1

Row | Structure (SMILES) | Speed of Neutral [1] | Granularity [2] | Speed of G Only [3] | Granularity [6] | Speed of G Only [7] [stops] | Speed of Neutral [7] [stops] | further results
1 | CCC(Oc1ccc(C(C)(C)CC)cc1C(C)(C)CC)C(=O)Nc1ncnc2[nH]cnc12 (stereo not shown) [AB] | 0.23 stops | 21.4 ×10^3 | 0.23 stops | – | – | – | –
2 | CC(=O)Nc1ncnc2[nH]cnc12 [CC-4, reference compound] | −0.10 stops | 20.0 ×10^3 | −0.10 stops | – | – | – | –
3 | CCCCCCCCC(CCCCCC)CCc1ncnc2[nH]cnc12 (stereo not shown) [X] | 0.27 stops | 20.1 ×10^3 | 0.27 stops | 18.9 ×10^3 | 0.27 | 0.23 | Granularity (Layer 9, dispersed in twice own weight of (Z)-9-octadecen-1-ol): 20.2 ×10^3; Speed of G Only [4]: 0.17 stops; Speed of Neutral [4]: 0.17 stops; Granularity (Layer 9, dispersed in twice own weight of ortho-methylphenyl benzoate): 18.6 ×10^3; Speed of G Only [5]: 0.03 stops; Speed of Neutral [5]: 0.00 stops; Speed of G Only (Layer 9 at 0.082 mmol/m^2, M-1 in Layer 9 replaced with M-12 at 0.054 (ML-B-56 without addenda gives 0.00)): 0.10 stops; Speed of Neutral (Layer 9 at 0.082 mmol/m^2, M-1 in Layer 9 replaced with M-12 at 0.054 (ML-B-56 without addenda gives 0.03)): 0.10 stops; Granularity (Layer 9 at 0.082 mmol/m^2, M-1 in Layer 9 replaced with M-12 at 0.054 (ML-B-56 without addenda gives 19.0)): 19.3 ×10^3; Granularity (added to Layer 10 (Yellow filter layer) at 0.029 g/m^2): 18.7 ×10^3; Speed of G Only [8]: 0.13 stops; Speed of Neutral [8]: 0.07 stops
4 | CCCCCCCCCCCCCCCCCCSc1nnc2nc(C(C)(C)C)cc(O)n12 [AK] | 0.17 stops | 17.7 ×10^3 | 0.17 stops | – | – | – | –
5 | CCCC(Sc1nc2nc(C)cc(O)n2n1)C(=O)OCC (stereo not shown) [CC-12, reference compound] | 0.03 stops | 18.3 ×10^3 | 0.10 stops | – | – | – | –
6 | CCCCCCCCCN(CCCCCCCCC)c1ncnc2[nH]cnc12 [U] | 0.13 stops | 21.0 ×10^3 | 0.20 stops | – | – | – | –
7 | CCCCCCCCCCCCSc1nc2ccccc2[nH]1 [CC-7, reference compound] | 0.03 stops | 17.8 ×10^3 | 0.03 stops | – | – | – | –
8 | Cc1nc2ncnn2c(O)c1Br [CC-14, reference compound] | – | – | – | – | – | – | Granularity [9]: 17.8 ×10^3; Speed of G Only [10]: 0.00 stops; Speed of Neutral [10]: 0.00 stops
9 | CSc1nc2nc(C)cc(O)n2n1 [CC-15, reference compound] | – | – | – | – | – | – | Granularity [9]: 17.3 ×10^3; Speed of G Only [10]: 0.00 stops; Speed of Neutral [10]: −0.03 stops
10 | CCCCCCCCCCCC(=O)Nc1cccc(-n2nnnc2S)c1 [CC-21, reference compound] | – | – | – | 17.5 ×10^3 | −0.80 | −0.77 | –
11 | CCC(Oc1ccc(C(C)(C)CC)cc1C(C)(C)CC)C(=O)Nc1ccc2[nH]cnc2c1 (stereo not shown) [CC-27, reference compound] | – | – | – | 20.9 ×10^3 | 0.03 | −0.10 | –
12 | Nc1ncnc2[nH]cnc12 [CC-3, reference compound] | −0.10 stops | 20.0 ×10^3 | −0.10 stops | – | – | – | –
13 | CCCCCCCCCCCCCCC(Sc1nc2nc(C)cc(O)n2n1)C(=O)NCCC (stereo not shown) [AL] | 0.16 stops and 0.17 stops | 18.3 ×10^3 and 18.1 ×10^3 | 0.16 stops and 0.20 stops | – | – | – | –
14 | CCCCCCCCCCCCCCOc1ncnc2[nH]ncc12 [O] | 0.13 stops | 16.8 ×10^3 | 0.17 stops | – | – | – | –
15 | CCCCCCCCCCCCOc1ccc(-c2nnc(S)o2)cc1 [CC-24, reference compound] | – | – | – | 17.9 ×10^3 | 0.00 | 0.03 | –
16 | CCCCCCCCCCCCCCCCCCOc1ccc2[nH]nnc2c1 [BG] | – | – | – | 15.7 ×10^3 | 0.40 | 0.40 | –
17 | CCCCCCCCCCCCCCOc1ccc(-c2nnn[nH]2)cc1 [BK] | – | – | – | 18.6 ×10^3 | 0.10 | 0.10 | –
18 | CCCCCCCCc1cc(O)n2ncnc2n1 [CC-16, reference compound] | −0.30 stops | 26.2 ×10^3 | −0.23 stops | – | – | – | –
19 | CCCCCCCCCCCCCCCCCC(=O)OCc1n[nH]nc1-c1ccccc1 [BM] | – | – | – | 18.1 ×10^3 | 0.23 | 0.23 | –
20 | CCCCCC(=O)OCc1n[nH]nc1-c1ccccc1 [CC-26, reference compound] | – | – | – | 17.4 ×10^3 | −0.60 | −0.57 | –
21 | CCCCCCCCCCCCOc1ccc2[nH]nnc2c1 [CC-20, reference compound] | – | – | – | 17.7 ×10^3 | 0.06 | 0.03 | –
22 | CCCCCCCCCCCCSc1nnc(S)s1 [CC-23, reference compound] | – | – | – | 17.5 ×10^3 | −0.07 | −0.07 | –
23 | CCC(C)(C)c1ccc(OCCCCOC(=O)c2ccc3[nH]nnc3c2)c(C(C)(C)CC)c1 [BC] | – | – | – | 15.6 ×10^3 | 0.37 | 0.37 | –

Row | Structure (SMILES) | Speed of Neutral [1] | Granularity [2] | Speed of G Only [3] | Granularity [6] | Speed of G Only [7] [stops] | Speed of Neutral [7] [stops] | further results
24 | CCCCCCCCCCCCCCCCOC(=O)CCCCCSc1ncnc2[nH]cnc12 [AF] | 0.30 stops | 21.1 ×10^3 | 0.33 stops | – | – | – | –
25 | CCCCCCCCCCCCCCOc1nccc2[nH]cnc12 [BN] | 0.00 stops | 16.8 ×10^3 | 0.17 stops | – | – | – | –
26 | CCCCCCCCC(CCCCCC)COC(=O)C(C)Sc1nc2nc(C)cc(O)n2n1 (stereo not shown) [AM] | 0.20 stops | 17.9 ×10^3 | 0.23 stops | – | – | – | –
27 | CCCCCCCCCc1nc2nc(C)cc(O)n2n1 [CC-17, reference compound] | 0.10 stops | 27.2 ×10^3 | 0.10 stops | – | – | – | –
28 | CCCCCCCCCCOc1ccc(-c2nnn[nH]2)cc1 [CC-22, reference compound] | – | – | – | – | −0.17 | −0.07 | –
29 | CCCCCCCCCCCCCCCc1cccc(OC(CC)C(=O)Nc2ccc3[nH]nnc3c2)c1 (stereo not shown) [BF] | – | – | – | 15.7 ×10^3 | 0.37 | 0.33 | –
30 | CCC(C)(C)c1ccc(OCCCCNC(=O)c2ccc3[nH]nnc3c2)c(C(C)(C)CC)c1 [CC-10, reference compound] | 0.06 stops | 18.2 ×10^3 | 0.03 stops | – | – | – | –
31 | CCCCC(Oc1ccc(C(C)(C)CC)cc1C(C)(C)CC)c1nnc(S)s1 (stereo not shown) [BJ] | – | – | – | 17.5 ×10^3 | 0.10 | 0.07 | –
32 | CCCCCCCCCCCCCCCCSc1ncnc2[nH]cnc12 [J] | 0.37 stops | 20.9 ×10^3 | 0.37 stops | – | – | – | –
33 | CCC(C)(C)c1ccc(OCC(=O)Nc2ccc3[nH]nnc3c2)c(C(C)(C)CC)c1 [CC-19, reference compound] | – | – | – | 18.9 ×10^3 | −0.10 | 0.03 | –
34 | CCCCCCCCCCCCCCCc1cccc(OC(CC)C(=O)Nc2cccc(-n3nnnc3S)c2)c1 (stereo not shown) [BH] | – | – | – | 17.7 ×10^3 | 0.10 | 0.07 | –
35 | CCCCCCCCSc1nc2nc(C)cc(O)n2n1 [CC-18, reference compound] | −0.27 stops | – | −0.20 stops | – | – | – | –
36 | CCCCCCCCC(CCCCCC)COC(=O)CCCSc1ncnc2[nH]cnc12 (stereo not shown) [AH] | 0.23 stops | 18.9 ×10^3 | 0.23 stops | – | – | – | –
37 | CCCCCCCCCCCCc1ccc2[nH]cnc2c1 [CC-9, reference compound] | 0.03 stops | 18.6 ×10^3 | −0.03 stops | – | – | – | –
38 | Cc1cc(O)n2ncnc2n1 [CC-13, reference compound] | – | – | – | – | – | – | Granularity [9]: 17.3 ×10^3; Speed of G Only [10]: −0.07 stops; Speed of Neutral [10]: −0.10 stops
39 | CCCCCCCCCCCCCCCCCCOc1ncnc2[nH]cnc12 [Z] | 0.40 stops | 20.9 ×10^3 | 0.43 stops | – | – | – | –
40 | CCCCCCCCCCCCOc1ncnc2[nH]cnc12 [CC-6, reference compound] | 0.07 stops | 24.3 ×10^3 | 0.03 stops | – | – | – | –
41 | CCC(Oc1ccc(C(C)(C)CC)cc1C(C)(C)CC)C(=O)Nc1ccc2[nH]nnc2c1 (stereo not shown) [BB] | – | – | – | 16.9 ×10^3 | 0.33 | 0.33 | –
42 | CCCCCCCCCCCCCCCCCCOc1ccc(-c2nnn[nH]2)cc1 [CC-25, reference compound] | – | – | – | 28.1 ×10^3 | −0.03 | 0.00 | –
43 | CCCCC(Oc1ccc(C(C)(C)CC)cc1C(C)(C)CC)c1nnc(S)o1 (stereo not shown) [BI] | – | – | – | 19.0 ×10^3 | 0.10 | 0.03 | –
44 | CCCCCCCCCCCCCCCCCCSc1nnc2nc(C)cc(O)n12 [AJ] | 0.10 stops | 19.9 ×10^3 | 0.13 stops | – | – | – | –
45 | CCCCCCCCCCCCNc1ncnc2nc[nH]c12 [AA, 6-dodecylaminopurine] | 0.13 stops | 20.3 ×10^3 | 0.17 stops | – | – | – | –

Several values for one entry are separate records, joined by “and”; a condition that tells them apart may be missing. Equal entries are not always repeated.
